Laboratory results taken from doi:10.1101/2024.03.08.584095.
These are yes or no findings as the source states them, for the method shown. Some entries that bind do so weakly or less than the wild type.

Biological target: light-dependent protochlorophyllide oxidoreductase B of Arabidopsis thaliana (AtPORB) (A. thaliana) (UniProt P21218)
Assay: negative-stain electron microscopy

binding: binds
B1: light-dependent protochlorophyllide oxidoreductase B of Arabidopsis thaliana (AtPORB) (enzyme, UniProt P21218 67-401)
chain: QTAATSSPTVTKSVDGKKTLRKGNVVVTGASSGLGLATAKALAETGKWNVIMACRDFLKAERAAKSVGMPKDSYTVMHLDLASLDSVRQFVDNFRRTETPLDVLVCNAAVYFPTAKEPTYSAEGFELSVATNHLGHFLLARLLLDDLKKSDYPSKRLIIVGSITGNTNTLAGNVPPKANLGDLRGLAGGLNGLNSSAMIDGGDFDGAKAYKDSKVCNMLTMQEFHRRFHEETGVTFASLYPGCIASTGLFREHIPLFRALFPPFQKYITKGYVSETESGKRLAQVVSDPSLTKSGVYWSWNNASASFENQLSEEASDVEKARKVWEISEKLVGLA
